Test results: PubChem BioAssay AID493014 (National Center for Advancing Translational Sciences (NCATS), 2011)
Among all 340,000 compounds or so, about 170 (0.05%) were called active. Inconclusive means that the source gave no clear call. Such entries were picked first, then a sample of the others. The call rests on the fitted dose curve; in most records, active means well fitted inhibition curve with a large enough effect in the signal ratio, with a control signal flat (not every such curve was filed as active); inconclusive means small, poorly fitted or top-dose-only effect, or effect the other way, or a change in a side signal; inactive means flat fitted curve, though single readings scatter; the % refers to the signal ratio. A potency beside an inconclusive call is a rough fit, not a confirmed value.

Assay: qHTS Assay to Find Inhibitors of Chronic Active B-Cell Receptor Signaling;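 on activity change, negative = inhibition: plate controls were basal doxycycline-induced cells for no effect and cells given 10 µM MG132 for full effect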
Details: ABC-DLBCL IkBa-CBG/CBR reporter, luminescence ratio (green luciferase fused to IkBa over red control in TMD8 lymphoma cells), 4 h; activity change, negative = inhibition: at 46.1 µM (top of the series)
Outline: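 Doxycycline induced both beetle luciferases in TMD8 lymphoma cells; IKK-driven degradation limits the IkappaBalpha-fused green signal, while red luminescence normalises for cell number and nonspecific effects. Compounds tested up to 46 uM, 4 hrs.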
Potency means the concentration at half of the fitted maximal effect.

SMILES | Potency | activity change, negative = inhibition
N=c1n(CCN2CCCCC2)c2ccccc2n1CC(O)c1ccc(Cl)c(Cl)c1 (configuration not stated) | inconclusive: 20.6 µM [falling, partial curve, poor fit] | –
COc1cc(Nc2nc(SCc3ccccc3F)nc3ccccc23)cc(OC)c1 | inconclusive: 15.8 µM [rising, single point] | –
CC(=O)c1cccc(OC(=O)c2cc(S(=O)(=O)N3CCOCC3)ccc2N2CCCC2)c1 | – | inconclusive: 1.37%
COc1ccccc1/C=C/C(=O)NCc1cccnc1 | inconclusive: 25.1 µM [falling, single point] | –
COc1ccc(CCNC(=O)COC(=O)C2CC2)cc1OC | – | inactive
Cc1cccc(-n2nnc(C(=O)NCc3ccccc3Cl)c2N)c1 | inconclusive: 8.91 µM [falling, partial curve] | –
C/C(CC(=O)Nc1ccccn1)=N\NC(=O)c1cccc(C)c1 | inconclusive: 3.98 µM [rising, full curve, poor fit] | –
COc1ccccc1CN1CC(C(=O)NCc2cccnc2)CC1=O (configuration not stated) | – | inconclusive: 5.75%
COc1ncccc1-c1nnn(-c2ccccc2)n1 | inconclusive: 15.8 µM [falling, partial curve] | –
O=C(Nc1nc2c(s1)CCc1ccccc1-2)c1ccco1 | – | inconclusive: -21.2%
Brc1ccccc1/C=N/Nc1ccccn1 | – | inactive
CSc1nnc(-c2ccc(Cl)cc2Cl)o1 | – | inconclusive: 4.78%
CCn1c(/C=C\c2ccccc2C)nc2ccccc2c1=O | inconclusive: 15.8 µM [falling, partial curve] | –
CC(Sc1nnnn1C)C(=O)Nc1nc(-c2ccc(F)c(F)c2)cs1 (configuration not stated) | inconclusive: 20.6 µM [rising, partial curve, poor fit] | –
CC(=O)NCCc1cc2cc(C)c(C)cc2[nH]c1=O | – | inconclusive: -1.19%
c1ccc(-n2cnc3cc(NCc4cccs4)ccc32)cc1 | inconclusive: 25.1 µM [falling, partial curve] | –
Cc1ccc(-n2ncc3c(NNC(=O)Cc4ccccc4)ncnc32)cc1 | – | inactive
C=CCOC(=O)CCC(=O)Nc1cc(OC)nc(OC)n1 | inconclusive: 23.1 µM [activator, partial curve, poor fit] | –
Cc1ccc2nc(SCc3nnc(-c4ccccc4)o3)[nH]c2c1 | – | inactive
CCOc1ccccc1/C=C/c1nc2ccccc2[nH]c1=O | – | inconclusive: -23.7%
COc1cc([N+](=O)[O-])ccc1NC(=O)NCC1CCN(Cc2ccc(Cl)cc2)CC1 | – | inconclusive: -15.2%
COc1cccc(/C=C/C(=O)OCC(=O)Nc2cc(S(=O)(=O)N3CCOCC3)ccc2C)c1 | – | inactive

3 structures out of the list, sorted by number of heavy atoms, smallest number first.
SMILES | Potency | activity change, negative = inhibition
COc1ncccc1-c1nnn(-c2ccccc2)n1 | inconclusive: 15.8 µM [falling, partial curve] | –
C/C(CC(=O)Nc1ccccn1)=N\NC(=O)c1cccc(C)c1 | inconclusive: 3.98 µM [rising, full curve, poor fit] | –
CC(=O)c1cccc(OC(=O)c2cc(S(=O)(=O)N3CCOCC3)ccc2N2CCCC2)c1 | – | inconclusive: 1.37%
